PubChem BioAssay AID1259308 – NCATS – 2017
Test: 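Candidate targets for better recombinant protein yield in mammalian cells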 (primary screen). Cells: human HEK293 embryonic kidney cells stably expressing firefly luciferase (HEK-CMV-Luc2-Hygro). Knock-down reagent: single siRNA against human genes, 0.8 pmol siRNA per well. Timing: 72 h. Read-out: 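Luciferase light (ONE-Glo) measured on one replicate plate set and viability (CellTiter-Glo) on the other, scaled to a negative control siRNA, with robust z-scores and luciferase per cell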. Scale: total luciferase, z-score and total luciferase, % of control: higher = more reporter protein produced; luciferase per cell, z-score: higher = more reporter output per viable cell. Hit rule: 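Active when the median/MAD z-score for overall luciferase is greater than 3; a gene was taken forward for validation with new siRNAs if at least two of its three siRNAs passed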. Meaning of the calls: active = raised luciferase; inactive = no rise.
This is a random part of about 59,000 deposited reagents. Over the whole deposit, about 1,510 (2.6%) are marked active. 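Calls use total luciferase alone and ignore viability, so some active siRNAs may act by altering cell number.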 Entries without a mark were called inactive. The numbers tell different reagents against one gene apart. Not all columns of the deposit are shown.

no.	target	reagent	total luciferase, z-score	total luciferase, % of control	luciferase per cell, z-score
1	HSF2 (heat shock transcription factor 2)	1	-0.108	79.7	0.599
2	HSF2 (heat shock transcription factor 2)	2	-1.08	60.5	-1.18
3	HSF2 (heat shock transcription factor 2)	3	0.266	87.2	-0.272
4	RNF212 (ring finger protein 212)	1	1.64	115	3.37
5	RNF212 (ring finger protein 212)	2	-0.767	66.6	-1.08
6	RNF212 (ring finger protein 212)	3	-0.366	74.6	-0.431
7	KCNA7 (potassium voltage-gated channel subfamily A member 7)	1	0.838	98.6	1.45
8	KCNA7 (potassium voltage-gated channel subfamily A member 7)	2	-1.17	58.5	-1.4
9	KCNA7 (potassium voltage-gated channel subfamily A member 7)	3	-0.702	67.9	-0.673
10	SDCCAG8 (SHH signaling and ciliogenesis regulator SDCCAG8)	1	2.49	131	1.43
11	SDCCAG8 (SHH signaling and ciliogenesis regulator SDCCAG8)	2	-0.382	74.3	-0.0657
12	SDCCAG8 (SHH signaling and ciliogenesis regulator SDCCAG8)	3	1.46	111	1.28

Next part; the last 3 above are carried over.
no.	target	reagent	total luciferase, z-score	total luciferase, % of control	luciferase per cell, z-score
10	SDCCAG8 (SHH signaling and ciliogenesis regulator SDCCAG8)	1	2.49	131	1.43
11	SDCCAG8 (SHH signaling and ciliogenesis regulator SDCCAG8)	2	-0.382	74.3	-0.0657
12	SDCCAG8 (SHH signaling and ciliogenesis regulator SDCCAG8)	3	1.46	111	1.28
13	PLCB4 (phospholipase C beta 4)	1	0.428	90.4	0.348
14	PLCB4 (phospholipase C beta 4)	2	-0.0729	80.4	-0.402
15	PLCB4 (phospholipase C beta 4)	3	-0.451	72.9	-0.59
16	LSP1P3 (LSP1 pseudogene 3)	1	-0.335	75.2	-0.0276
17	LSP1P3 (LSP1 pseudogene 3)	2	0.424	90.3	0.714
18	LSP1P3 (LSP1 pseudogene 3)	3	-0.247	77	0.327
19	NKX2-6 (NK2 homeobox 6)	1	-1.25	57.1	-1.14
20	NKX2-6 (NK2 homeobox 6)	2	-0.283	76.3	0.336
21	NKX2-6 (NK2 homeobox 6)	3	-0.0396	81.1	-0.208
22	LIN7C (lin-7 cell polarity scaffold C)	1	0.387	89.6	-0.0829
23	LIN7C (lin-7 cell polarity scaffold C)	2	0.16	85.1	-0.113
24	LIN7C (lin-7 cell polarity scaffold C)	3	2.9	140	2.52
